Laboratory results from US20140134177A1.
Results are given in words; binding and its absence hold for the method and conditions named. Some results given as binding are weak or reduced against the parent protein; the word gives no strength.

Molecular target: FLAG-LGR5-CD4TM (human) (UniProt P01730)
Assay: FACS based assay, Fab format

B1: 88R21 Fab (Fab, V domains shown)
VH: QVQLVQSGAEVKKPGSSVKVSCKASGRTFSNYAIGWVRQAPGQGLEWMGGIRPNFGWAKYAQKFQGRVTITADESTSTAYMELSSLRSEDTAVYYCARYGQGHFPSAFDYWGQGTLVTVSS
VL: DIALTQPASVSGSPGQSITISCTGTNSDVGTYNYVHWYQQHPGKAPKLMIYDGSNRPSGVSNRFSGSKSGNTASLTISGLQAEDEADYYCQAYDSHSFNIVFGGGTKLTVLG
binding: binds
